PubChem BioAssay AID1671195, Yale University – 2021

Assay: 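Genes whose knockdown alters LDL uptake in liver cancer cells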 (primary screen)
Cell system: human Huh7 hepatoma cells
Reagents: siRNA pool against human genes, 18 nM
Time to read-out: about 2 to 2.5 days of knockdown, then 8 h LDL uptake
Challenge: DiI-labelled LDL at 30 µg/ml for 8 h, in lipoprotein-deficient serum medium
Measured: 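Fluorescent LDL signal imaged in cells, scaled to the plate median, robust z-score for each replicate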
Reading the numbers: robust z-score: higher = more LDL uptake after knockdown
Call rule: 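Active when two or more replicates show a robust z-score above 2 or below -2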
The deposit covers about 22,000 reagents; shown is an unselected part. About 1,510 of them (6.9%) count as active. 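Active includes knockdowns raising or lowering LDL uptake; positive z-scores mean more uptake, negative mean less.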 The numbers tell different reagents against one gene apart.

The opening 9 records, to show the layout:
target,reagent,"robust z-score, replicate 1","robust z-score, replicate 2","robust z-score, replicate 3",Call
"TLE2 (TLE family member 2, transcriptional corepressor)",1,0.955,0.114,0.796,inactive
LOC441474 (retired record),1,-1.18,-1.22,-1.5,inactive
THSD4 (thrombospondin type 1 domain containing 4),1,-1.3,-1.41,-1.27,inactive
"OTUB1 (OTU deubiquitinase, ubiquitin aldehyde binding 1)",1,-0.636,-1.06,-0.551,inactive
TRERF1 (transcriptional regulating factor 1),1,1.51,1.38,1.02,inactive
SLC5A6,1,0.0915,0.702,0.757,inactive
SAMD4A (sterile alpha motif domain containing 4A),1,0.583,-0.258,0.176,inactive
PRSS23 (serine protease 23),1,1.33,1.21,1.81,inactive
GNMT (glycine N-methyltransferase),1,-0.702,-1.28,-0.148,inactive

Main list, from the start:
target,reagent,"robust z-score, replicate 1","robust z-score, replicate 2","robust z-score, replicate 3",Call
"TLE2 (TLE family member 2, transcriptional corepressor)",1,0.955,0.114,0.796,inactive
LOC441474 (retired record),1,-1.18,-1.22,-1.5,inactive
THSD4 (thrombospondin type 1 domain containing 4),1,-1.3,-1.41,-1.27,inactive
"OTUB1 (OTU deubiquitinase, ubiquitin aldehyde binding 1)",1,-0.636,-1.06,-0.551,inactive
TRERF1 (transcriptional regulating factor 1),1,1.51,1.38,1.02,inactive
SLC5A6,1,0.0915,0.702,0.757,inactive
SAMD4A (sterile alpha motif domain containing 4A),1,0.583,-0.258,0.176,inactive
PRSS23 (serine protease 23),1,1.33,1.21,1.81,inactive
GNMT (glycine N-methyltransferase),1,-0.702,-1.28,-0.148,inactive
MRPL43 (mitochondrial ribosomal protein L43),1,0.455,0.779,0.212,inactive
KRTAP19-3 (keratin associated protein 19-3),1,-0.552,-0.748,-0.551,inactive
NAALAD2 (N-acetylated alpha-linked acidic dipeptidase 2),1,1.24,1.79,1.71,inactive
CNTN5 (contactin 5),1,1.7,0.384,0.479,inactive
DNASE1L1 (deoxyribonuclease 1 like 1),1,0.53,0.183,0.735,inactive
GABRG1 (gamma-aminobutyric acid type A receptor subunit gamma1),1,-0.87,-1.26,-1.63,inactive
"SAMSN1 (SAM domain, SH3 domain and nuclear localization signals 1)",1,1.64,1.54,0.301,inactive
"SAMSN1 (SAM domain, SH3 domain and nuclear localization signals 1)",2,-0.823,-0.735,-0.303,inactive
RANBP6 (RAN binding protein 6),1,0.125,-1.77,0.0399,inactive
GFPT2 (glutamine--fructose-6-phosphate transaminase 2),1,0.544,-0.0261,0.034,inactive
SYBU (syntabulin),1,-1.33,0.0368,0.491,inactive
LYRM7 (LYR motif containing 7),1,1.36,1.74,0.868,inactive
SAR1B (secretion associated Ras related GTPase 1B),1,-0.367,1.49,0.954,inactive
LSMEM1 (leucine rich single-pass membrane protein 1),1,-0.567,-0.777,-0.687,inactive
FAM194C (family with sequence similarity 194 member C),1,-0.543,0.15,0.414,inactive
MYBPH (myosin binding protein H),1,-0.561,0.362,0.122,inactive
MYH9 (myosin heavy chain 9),1,1.72,0.889,0.291,inactive
UBE2F (ubiquitin conjugating enzyme E2 F (putative)),1,0.085,0.815,1.51,inactive
LINC02915 (long independently transcribed non-coding RNA 2915),1,0.206,0.436,0.108,inactive
STK16 (serine/threonine kinase 16),1,-1.04,-0.88,-1.39,inactive
XYLB (xylulokinase),1,0.0719,0.647,0.612,inactive
XYLT1 (xylosyltransferase 1),1,2.21,2.35,2.06,active
AGFG2 (ArfGAP with FG repeats 2),1,0.0398,-0.0111,0.729,inactive
NEK7 (NIMA related kinase 7),1,-0.847,-1.59,-1.32,inactive
LOC441534 (retired record),1,1.63,0.184,0.403,inactive
LRRC75A (leucine rich repeat containing 75A),1,1.08,0.931,1.07,inactive
LOC401922 (retired record),1,0.39,-2.65,0.229,inactive
C4orf33 (chromosome 4 open reading frame 33),1,-1.09,-1.36,-0.995,inactive
HNRNPUL2 (heterogeneous nuclear ribonucleoprotein U like 2),1,0.548,0.555,0.331,inactive
LOC440334 (retired record),1,0.596,0.614,0.176,inactive
LOC389142 (retired record),1,0.306,-0.112,0.232,inactive
PCDHA12 (protocadherin alpha 12),1,-0.441,-0.0643,-0.0585,inactive
SLC22A25,1,-1.28,-1.12,-1.34,inactive
COX7A2L (cytochrome c oxidase subunit 7A2 like),1,0.175,-0.172,-0.623,inactive
DLL1 (delta like canonical Notch ligand 1),1,0.5,0.578,1.15,inactive
DHFR2 (dihydrofolate reductase 2),1,-0.929,-1.15,-0.737,inactive
KPRP (keratinocyte proline rich protein),1,0.543,-0.309,0.494,inactive
CCN3 (cellular communication network factor 3),1,3.69,2.49,3.9,active
GDI2 (GDP dissociation inhibitor 2),1,-0.573,0.365,-1.12,inactive
WARS1 (tryptophanyl-tRNA synthetase 1),1,-0.157,-0.0888,0.545,inactive
FBXO28 (F-box protein 28),1,0.545,1.08,1.85,inactive
"NFIL3 (nuclear factor, interleukin 3 regulated)",1,0.0575,0.689,0.462,inactive
LOC442652 (retired record),1,0.281,-0.494,-0.733,inactive
CCNQ (cyclin Q),1,-1.02,-0.132,0.162,inactive
TLR2 (toll like receptor 2),1,1.03,0.567,0.399,inactive
LYSMD1 (LysM domain containing 1),1,2.56,1.04,1.02,inactive
KIR3DL3,1,-0.599,-0.4,-0.48,inactive
OR10K2 (olfactory receptor family 10 subfamily K member 2),1,-0.698,-0.819,-1.36,inactive
SF3B3 (splicing factor 3b subunit 3),1,-1.84,-1.54,-1.41,inactive
ABI2 (abl interactor 2),1,-0.0765,0.448,0.0671,inactive
"TNNC1 (troponin C1, slow skeletal and cardiac type)",1,-0.239,0.9,-0.263,inactive
GMIP (GEM interacting protein),1,-0.213,0.729,-0.124,inactive
SYCP2 (synaptonemal complex protein 2),1,1.01,1.13,0.0431,inactive
LINC01010 (long independently transcribed non-coding RNA 1010),1,1.96,0.891,1.17,inactive
MGAT4C (MGAT4 family member C),1,0.321,0.0533,1.02,inactive
CLCN5 (Cl-/H+ antiporter 5),1,1.63,2.66,2.12,active
CCDC38 (coiled-coil domain containing 38),1,0.44,0.015,-0.743,inactive
NOL9 (nucleolar protein 9),1,0.899,1.55,1.24,inactive
ZNF550 (zinc finger protein 550),1,-0.637,-0.228,-0.539,inactive
ZNF263 (zinc finger protein 263),1,1.07,1.25,2.04,inactive
DACH1 (dachshund family transcription factor 1),1,3.82,2.78,3.1,active
PHLDB1 (pleckstrin homology like domain family B member 1),1,0.362,-0.639,-0.15,inactive
GON7 (GON7 subunit of KEOPS complex),1,-1.29,-0.894,-0.51,inactive
ERMN (ermin),1,0.0873,-0.88,-0.34,inactive
CAPRIN1 (cell cycle associated protein 1),1,0.504,2.23,1.19,inactive
MTRES1 (mitochondrial transcription rescue factor 1),1,2.03,0.578,-1.98,inactive
CTSL (cathepsin L),1,1.11,0.791,0.436,inactive
CCDC78 (coiled-coil domain containing 78),1,-0.326,2.08,1.37,inactive
PPIAP28 (peptidylprolyl isomerase A pseudogene 28),1,1.87,1.27,0.833,inactive
MED24 (mediator complex subunit 24),1,-0.691,-0.757,-0.987,inactive
IFI30 (IFI30 lysosomal thiol reductase),1,2.86,2.34,2.35,active
OR2AK2 (olfactory receptor family 2 subfamily AK member 2),1,1.87,1.52,2,inactive
WWC2-AS2 (WWC2 antisense RNA 2),1,0.924,0.547,1.05,inactive
ATOSA (atos homolog A),1,-1.41,-2.09,-0.416,inactive
TOMM22P5 (TOMM22 pseudogene 5),1,-0.269,-0.159,-0.296,inactive
LINC02370 (long independently transcribed non-coding RNA 2370),1,-0.485,-0.203,-0.295,inactive
ADGRF5 (adhesion G protein-coupled receptor F5),1,0.0749,1.03,0.259,inactive
LINC02877 (long independently transcribed non-coding RNA 2877),1,-1.12,-1.47,-1.07,inactive
